Laboratory results: patent US8389766B2, “Insecticidal compounds” (Syngenta Crop Protection LLC, priority 2006, dated 2013)
Some of these results come from one statement about several compounds together.

How the values were obtained:
Assay type in all cases: in vivo
Spodoptera littoralis = Spodoptera littoralis (Egyptian cotton leafworm) cotton leaf disc spray test; settings: 200 ppm sprayed on cotton leaf discs, 5 L1 larvae; mortality, feeding behaviour, growth regulation 3 DAT
Plutella xylostella = Plutella xylostella (diamond back moth) larvae test on artificial diet; settings: 200 ppm (concentration in well 18 ppm), L2 larvae, larval mortality, growth regulation after 6 days
Diabrotica balteata = Diabrotica balteata (corn root worm) larvae test on artificial diet; settings: 200 ppm (concentration in well 18 ppm), L2 larvae, larval mortality, growth regulation after 5 days
Thrips tabaci = Thrips tabaci (onion thrips) sunflower leaf disc spray test; settings: 200 ppm sprayed on sunflower leaf discs, mixed ages; mortality after 7 days
Heliothis virescens = Heliothis virescens (tobacco budworm) egg test on artificial diet; settings: 200 ppm (concentration in well 18 ppm), eggs 0-24 h old on artificial diet; egg mortality, larval mortality, growth regulation after 4 days

Cc1cc(C(F)(C(F)(F)F)C(F)(F)F)cc(C)c1NC(=O)c1ccc(C#N)c(NC(=O)c2ccccc2)c1 [A15]
at least 80%: control of Spodoptera littoralis (Spodoptera littoralis) | control of Plutella xylostella (Plutella xylostella) | control of Diabrotica balteata (Diabrotica balteata) | control of Thrips tabaci (Thrips tabaci)

CCc1cc(C(F)(C(F)(F)F)C(F)(F)F)cc(CC)c1NC(=O)c1ccc(C#N)c(NC(=O)c2ccccc2Cl)c1 [A25]
at least 80%: control of Spodoptera littoralis (Spodoptera littoralis) | control of Heliothis virescens (Heliothis virescens) | control of Plutella xylostella (Plutella xylostella) | control of Diabrotica balteata (Diabrotica balteata) | control of Thrips tabaci (Thrips tabaci)

CCc1cc(C(F)(C(F)(F)F)C(F)(F)F)cc(CC)c1NC(=O)c1ccc(C#N)c(NC(=O)c2ccc(C(F)(F)F)cc2)c1 [A32]
at least 80%: control of Spodoptera littoralis (Spodoptera littoralis) | control of Heliothis virescens (Heliothis virescens) | control of Plutella xylostella (Plutella xylostella) | control of Diabrotica balteata (Diabrotica balteata) | control of Thrips tabaci (Thrips tabaci)

CCc1cc(C(F)(C(F)(F)F)C(F)(F)F)cc(CC)c1NC(=O)c1ccc(C#N)c(NC(=O)c2ccccc2)c1 [A33]
at least 80%: control of Spodoptera littoralis (Spodoptera littoralis) | control of Heliothis virescens (Heliothis virescens) | control of Plutella xylostella (Plutella xylostella) | control of Diabrotica balteata (Diabrotica balteata) | control of Thrips tabaci (Thrips tabaci)

CCc1cc(C(F)(C(F)(F)F)C(F)(F)F)cc(CC)c1NC(=O)c1ccc(C#N)c(NC(=O)c2ccccc2C(F)(F)F)c1 [A35]
at least 80%: control of Spodoptera littoralis (Spodoptera littoralis) | control of Heliothis virescens (Heliothis virescens) | control of Plutella xylostella (Plutella xylostella) | control of Diabrotica balteata (Diabrotica balteata) | control of Thrips tabaci (Thrips tabaci)

CCc1cc(C(F)(C(F)(F)F)C(F)(F)C(F)(F)F)cc(CC)c1NC(=O)c1ccc(C#N)c(NC(=O)c2ccc(F)c(C(F)(F)F)c2)c1 (stereo not shown) [A47]
at least 80%: control of Spodoptera littoralis (Spodoptera littoralis) | control of Heliothis virescens (Heliothis virescens) | control of Plutella xylostella (Plutella xylostella) | control of Diabrotica balteata (Diabrotica balteata) | control of Thrips tabaci (Thrips tabaci)

CCc1cc(C(F)(C(F)(F)F)C(F)(F)C(F)(F)F)cc(CC)c1NC(=O)c1ccc(C#N)c(NC(=O)c2ccc(C(=O)OC)cc2)c1 (stereo not shown) [A57]
at least 80%: control of Spodoptera littoralis (Spodoptera littoralis) | control of Heliothis virescens (Heliothis virescens) | control of Thrips tabaci (Thrips tabaci)

CCc1cc(C(F)(C(F)(F)F)C(F)(F)C(F)(F)F)cc(C)c1NC(=O)c1ccc(C#N)c(NC(=O)c2ccccc2F)c1 (stereo not shown) [A61]
at least 80%: control of Spodoptera littoralis (Spodoptera littoralis) | control of Heliothis virescens (Heliothis virescens) | control of Plutella xylostella (Plutella xylostella) | control of Diabrotica balteata (Diabrotica balteata) | control of Thrips tabaci (Thrips tabaci)

CCc1cc(C(F)(C(F)(F)F)C(F)(F)C(F)(F)F)cc(C)c1NC(=O)c1ccc(C#N)c(NC(=O)c2ccc(F)c(C(F)(F)F)c2)c1 (stereo not shown) [A67]
at least 80%: control of Spodoptera littoralis (Spodoptera littoralis) | control of Heliothis virescens (Heliothis virescens) | control of Plutella xylostella (Plutella xylostella) | control of Diabrotica balteata (Diabrotica balteata) | control of Thrips tabaci (Thrips tabaci)

Cc1cc(C(F)(C(F)(F)F)C(F)(F)C(F)(F)F)cc(Br)c1NC(=O)c1ccc(C#N)c(NC(=O)c2ccc(OC(F)(F)F)cc2)c1 (stereo not shown) [A109]
at least 80%: control of Spodoptera littoralis (Spodoptera littoralis) | control of Heliothis virescens (Heliothis virescens) | control of Plutella xylostella (Plutella xylostella) | control of Diabrotica balteata (Diabrotica balteata) | control of Thrips tabaci (Thrips tabaci)

Cc1cc(C(F)(C(F)(F)F)C(F)(F)C(F)(F)F)cc(Br)c1NC(=O)c1ccc(C#N)c(NC(=O)c2ccc(C(F)(F)F)cc2)c1 (stereo not shown) [A111]
at least 80%: control of Spodoptera littoralis (Spodoptera littoralis) | control of Heliothis virescens (Heliothis virescens) | control of Plutella xylostella (Plutella xylostella) | control of Diabrotica balteata (Diabrotica balteata) | control of Thrips tabaci (Thrips tabaci)

Cc1cc(C(F)(C(F)(F)F)C(F)(F)C(F)(F)F)cc(Br)c1NC(=O)c1ccc(C#N)c(NC(=O)c2ccccc2OC(F)(F)F)c1 (stereo not shown) [A112]
at least 80%: control of Spodoptera littoralis (Spodoptera littoralis) | control of Heliothis virescens (Heliothis virescens) | control of Plutella xylostella (Plutella xylostella) | control of Diabrotica balteata (Diabrotica balteata)

Cc1cc(C(F)(C(F)(F)F)C(F)(F)C(F)(F)F)cc(Br)c1NC(=O)c1ccc(C#N)c(NC(=O)c2cccc(F)c2F)c1 (stereo not shown) [A118]
at least 80%: control of Spodoptera littoralis (Spodoptera littoralis) | control of Heliothis virescens (Heliothis virescens) | control of Plutella xylostella (Plutella xylostella) | control of Diabrotica balteata (Diabrotica balteata) | control of Thrips tabaci (Thrips tabaci)

CCc1cc(C(F)(C(F)(F)F)C(F)(F)F)cc(Br)c1NC(=O)c1ccc(C#N)c(NC(=O)c2ccccc2F)c1 [A121]
at least 80%: control of Spodoptera littoralis (Spodoptera littoralis) | control of Heliothis virescens (Heliothis virescens) | control of Plutella xylostella (Plutella xylostella) | control of Diabrotica balteata (Diabrotica balteata)

CCc1cc(C(F)(C(F)(F)F)C(F)(F)F)cc(Br)c1NC(=O)c1ccc(C#N)c(NC(=O)c2cc(Cl)ccc2F)c1 [A126]
at least 80%: control of Spodoptera littoralis (Spodoptera littoralis) | control of Heliothis virescens (Heliothis virescens) | control of Plutella xylostella (Plutella xylostella) | control of Diabrotica balteata (Diabrotica balteata)

CCc1cc(C(F)(C(F)(F)F)C(F)(F)F)cc(Br)c1NC(=O)c1ccc(C#N)c(NC(=O)c2ccco2)c1 [A128]
at least 80%: control of Spodoptera littoralis (Spodoptera littoralis) | control of Heliothis virescens (Heliothis virescens) | control of Plutella xylostella (Plutella xylostella) | control of Diabrotica balteata (Diabrotica balteata)

CCc1cc(C(F)(C(F)(F)F)C(F)(F)F)cc(Br)c1NC(=O)c1ccc(C#N)c(NC(=O)c2ccccc2)c1 [A134]
at least 80%: control of Spodoptera littoralis (Spodoptera littoralis) | control of Heliothis virescens (Heliothis virescens) | control of Plutella xylostella (Plutella xylostella) | control of Diabrotica balteata (Diabrotica balteata) | control of Thrips tabaci (Thrips tabaci)

CCc1cc(C(F)(C(F)(F)F)C(F)(F)F)cc(Br)c1NC(=O)c1ccc(C#N)c(NC(=O)c2ccccc2C(F)(F)F)c1 [A136]
at least 80%: control of Spodoptera littoralis (Spodoptera littoralis) | control of Heliothis virescens (Heliothis virescens) | control of Plutella xylostella (Plutella xylostella) | control of Diabrotica balteata (Diabrotica balteata)

CCc1cc(C(F)(C(F)(F)F)C(F)(F)F)cc(Br)c1NC(=O)c1ccc(C#N)c(NC(=O)c2cccc(F)c2F)c1 [A139]
at least 80%: control of Spodoptera littoralis (Spodoptera littoralis) | control of Heliothis virescens (Heliothis virescens) | control of Plutella xylostella (Plutella xylostella) | control of Diabrotica balteata (Diabrotica balteata)

CCc1cc(C(F)(C(F)(F)F)C(F)(F)C(F)(F)F)cc(Br)c1NC(=O)c1ccc(C#N)c(NC(=O)c2ccc(OC(F)(F)F)cc2)c1 (stereo not shown) [A149]
at least 80%: control of Plutella xylostella (Plutella xylostella) | control of Diabrotica balteata (Diabrotica balteata) | control of Thrips tabaci (Thrips tabaci)

CCc1cc(C(F)(C(F)(F)F)C(F)(F)C(F)(F)F)cc(Br)c1NC(=O)c1ccc(C#N)c(NC(=O)c2ccccc2OC(F)(F)F)c1 (stereo not shown) [A152]
at least 80%: control of Spodoptera littoralis (Spodoptera littoralis) | control of Heliothis virescens (Heliothis virescens) | control of Plutella xylostella (Plutella xylostella) | control of Diabrotica balteata (Diabrotica balteata)

CCc1cc(C(F)(C(F)(F)F)C(F)(F)C(F)(F)F)cc(Br)c1NC(=O)c1ccc(C#N)c(NC(=O)c2cccc(F)c2F)c1 (stereo not shown) [A159]
at least 80%: control of Spodoptera littoralis (Spodoptera littoralis) | control of Heliothis virescens (Heliothis virescens) | control of Plutella xylostella (Plutella xylostella) | control of Diabrotica balteata (Diabrotica balteata)

CCc1cc(C(F)(C(F)(F)F)C(F)(F)C(F)(F)F)cc(Br)c1NC(=O)c1ccc(C#N)c(NC(=O)c2ccc(C(=O)OC)cc2)c1 (stereo not shown) [A160]
at least 80%: control of Heliothis virescens (Heliothis virescens) | control of Plutella xylostella (Plutella xylostella) | control of Thrips tabaci (Thrips tabaci)

COCc1cc(C(F)(C(F)(F)F)C(F)(F)F)cc(C)c1NC(=O)c1ccc(C#N)c(NC(=O)c2ccccc2F)c1 [A163]
at least 80%: control of Spodoptera littoralis (Spodoptera littoralis) | control of Heliothis virescens (Heliothis virescens) | control of Plutella xylostella (Plutella xylostella) | control of Diabrotica balteata (Diabrotica balteata)

COCc1cc(C(F)(C(F)(F)F)C(F)(F)F)cc(C)c1NC(=O)c1ccc(C#N)c(NC(=O)c2cc(Cl)ccc2F)c1 [A169]
at least 80%: control of Spodoptera littoralis (Spodoptera littoralis) | control of Heliothis virescens (Heliothis virescens) | control of Plutella xylostella (Plutella xylostella) | control of Diabrotica balteata (Diabrotica balteata)

COCc1cc(C(F)(C(F)(F)F)C(F)(F)F)cc(C)c1NC(=O)c1ccc(C#N)c(NC(=O)c2cccc(F)c2F)c1 [A178]
at least 80%: control of Spodoptera littoralis (Spodoptera littoralis) | control of Heliothis virescens (Heliothis virescens) | control of Plutella xylostella (Plutella xylostella) | control of Diabrotica balteata (Diabrotica balteata)

COCc1cc(C(F)(C(F)(F)F)C(F)(F)F)cc(C)c1NC(=O)c1ccc(C#N)c(NC(=O)c2cc(C(F)(F)F)ccc2F)c1 [A180]
at least 80%: control of Spodoptera littoralis (Spodoptera littoralis) | control of Heliothis virescens (Heliothis virescens) | control of Plutella xylostella (Plutella xylostella) | control of Diabrotica balteata (Diabrotica balteata)

CCc1cc(C(F)(C(F)(F)F)C(F)(F)C(F)(F)F)cc(C)c1NC(=O)c1ccc(C#N)c(NC(=O)c2cc(Cl)ccc2F)c1 (stereo not shown) [A217]
at least 80%: control of Spodoptera littoralis (Spodoptera littoralis) | control of Heliothis virescens (Heliothis virescens) | control of Plutella xylostella (Plutella xylostella) | control of Diabrotica balteata (Diabrotica balteata)

Cc1cc(C(F)(C(F)(F)F)C(F)(F)F)cc(C)c1NC(=O)c1ccc(C#N)c(NC(=O)c2ccccc2)c1F [D15, 3-benzoylamino-4-cyano-N-[2,6-dimethyl-4-(1,2,2,2-tetrafluoro-1-trifluoromethyl-ethyl)-phenyl]-2-fluoro-benzamide]
at least 80%: control of Spodoptera littoralis (Spodoptera littoralis) | control of Heliothis virescens (Heliothis virescens) | control of Plutella xylostella (Plutella xylostella) | control of Diabrotica balteata (Diabrotica balteata)
